{
  "sequences": {"note": "Protein sequences, listed by entry. Tags and fused reporters are not part of them. Lines headed by an entry give the natural chain unless they say otherwise; changes in a name come on top.", "UniProt P09496": "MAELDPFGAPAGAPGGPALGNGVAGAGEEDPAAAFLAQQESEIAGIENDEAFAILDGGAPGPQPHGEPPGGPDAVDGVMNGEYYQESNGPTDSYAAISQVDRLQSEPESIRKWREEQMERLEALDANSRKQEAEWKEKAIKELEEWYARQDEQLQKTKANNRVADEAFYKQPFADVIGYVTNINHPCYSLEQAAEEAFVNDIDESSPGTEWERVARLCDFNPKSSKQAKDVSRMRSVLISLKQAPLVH", "UniProt Q9UFF9, whole entry, looked up": "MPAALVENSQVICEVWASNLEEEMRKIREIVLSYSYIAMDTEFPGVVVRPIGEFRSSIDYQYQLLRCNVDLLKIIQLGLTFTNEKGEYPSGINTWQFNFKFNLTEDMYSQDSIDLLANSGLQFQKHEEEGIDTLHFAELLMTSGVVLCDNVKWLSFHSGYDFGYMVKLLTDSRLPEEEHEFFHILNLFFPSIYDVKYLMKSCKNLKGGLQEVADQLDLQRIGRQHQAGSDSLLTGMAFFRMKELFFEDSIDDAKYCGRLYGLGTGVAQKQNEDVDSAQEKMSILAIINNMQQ", "UniProt P09543": "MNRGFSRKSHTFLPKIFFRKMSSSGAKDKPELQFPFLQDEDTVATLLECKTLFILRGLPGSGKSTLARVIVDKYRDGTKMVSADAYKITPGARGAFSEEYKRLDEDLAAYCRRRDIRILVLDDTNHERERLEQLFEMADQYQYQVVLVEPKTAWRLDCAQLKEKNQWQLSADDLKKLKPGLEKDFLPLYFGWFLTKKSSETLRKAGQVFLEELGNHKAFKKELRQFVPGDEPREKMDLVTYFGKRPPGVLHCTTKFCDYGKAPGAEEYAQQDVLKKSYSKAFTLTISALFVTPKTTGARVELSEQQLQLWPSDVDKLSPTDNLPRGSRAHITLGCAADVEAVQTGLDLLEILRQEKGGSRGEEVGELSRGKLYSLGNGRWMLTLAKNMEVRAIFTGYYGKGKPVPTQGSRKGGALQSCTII", "UniProt P09497": "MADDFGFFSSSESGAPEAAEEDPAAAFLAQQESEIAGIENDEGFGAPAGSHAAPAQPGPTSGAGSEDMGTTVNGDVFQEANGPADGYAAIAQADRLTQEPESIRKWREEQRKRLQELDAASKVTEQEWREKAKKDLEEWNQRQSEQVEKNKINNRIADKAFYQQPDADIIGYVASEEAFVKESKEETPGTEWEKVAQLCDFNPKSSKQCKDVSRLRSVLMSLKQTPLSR", "UniProt Q7Z460": "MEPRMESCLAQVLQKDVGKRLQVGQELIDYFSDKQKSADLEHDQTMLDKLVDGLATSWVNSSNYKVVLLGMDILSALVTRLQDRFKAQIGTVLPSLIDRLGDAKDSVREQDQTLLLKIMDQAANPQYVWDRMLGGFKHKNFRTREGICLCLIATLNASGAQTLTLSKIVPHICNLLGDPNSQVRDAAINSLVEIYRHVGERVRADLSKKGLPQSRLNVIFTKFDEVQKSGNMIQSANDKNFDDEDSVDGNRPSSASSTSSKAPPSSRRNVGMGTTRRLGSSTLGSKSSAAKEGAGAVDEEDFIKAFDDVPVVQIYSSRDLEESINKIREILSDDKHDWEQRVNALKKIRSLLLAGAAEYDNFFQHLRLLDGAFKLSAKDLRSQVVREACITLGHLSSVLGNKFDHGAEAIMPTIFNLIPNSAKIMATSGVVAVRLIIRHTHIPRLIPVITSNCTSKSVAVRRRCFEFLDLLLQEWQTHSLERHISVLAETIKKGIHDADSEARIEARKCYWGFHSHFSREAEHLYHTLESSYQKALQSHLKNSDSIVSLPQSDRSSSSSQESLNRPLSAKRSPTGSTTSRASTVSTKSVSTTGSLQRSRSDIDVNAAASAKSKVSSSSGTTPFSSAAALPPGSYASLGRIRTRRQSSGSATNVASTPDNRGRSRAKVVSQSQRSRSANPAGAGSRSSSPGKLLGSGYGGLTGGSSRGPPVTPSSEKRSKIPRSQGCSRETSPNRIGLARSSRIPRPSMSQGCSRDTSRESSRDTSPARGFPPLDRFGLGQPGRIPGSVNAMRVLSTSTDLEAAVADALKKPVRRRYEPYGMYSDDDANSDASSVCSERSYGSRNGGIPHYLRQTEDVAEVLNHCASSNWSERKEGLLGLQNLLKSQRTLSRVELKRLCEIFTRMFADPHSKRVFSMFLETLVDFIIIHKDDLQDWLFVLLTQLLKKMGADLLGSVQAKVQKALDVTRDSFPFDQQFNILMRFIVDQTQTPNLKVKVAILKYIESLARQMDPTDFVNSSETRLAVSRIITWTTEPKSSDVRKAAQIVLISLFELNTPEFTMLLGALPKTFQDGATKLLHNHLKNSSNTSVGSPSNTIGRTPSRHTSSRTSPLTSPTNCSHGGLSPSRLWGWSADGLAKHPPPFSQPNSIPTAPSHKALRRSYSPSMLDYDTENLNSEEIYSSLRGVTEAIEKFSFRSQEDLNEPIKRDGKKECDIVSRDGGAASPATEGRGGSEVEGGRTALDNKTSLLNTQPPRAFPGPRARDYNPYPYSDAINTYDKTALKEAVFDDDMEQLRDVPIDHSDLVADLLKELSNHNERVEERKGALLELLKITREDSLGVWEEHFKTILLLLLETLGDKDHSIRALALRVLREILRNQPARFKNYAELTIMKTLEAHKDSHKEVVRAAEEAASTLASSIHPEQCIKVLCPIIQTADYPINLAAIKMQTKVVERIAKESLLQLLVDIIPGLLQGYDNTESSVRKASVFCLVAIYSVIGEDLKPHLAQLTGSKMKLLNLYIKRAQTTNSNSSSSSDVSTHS", "UniProt Q9H9A5, whole entry, looked up": "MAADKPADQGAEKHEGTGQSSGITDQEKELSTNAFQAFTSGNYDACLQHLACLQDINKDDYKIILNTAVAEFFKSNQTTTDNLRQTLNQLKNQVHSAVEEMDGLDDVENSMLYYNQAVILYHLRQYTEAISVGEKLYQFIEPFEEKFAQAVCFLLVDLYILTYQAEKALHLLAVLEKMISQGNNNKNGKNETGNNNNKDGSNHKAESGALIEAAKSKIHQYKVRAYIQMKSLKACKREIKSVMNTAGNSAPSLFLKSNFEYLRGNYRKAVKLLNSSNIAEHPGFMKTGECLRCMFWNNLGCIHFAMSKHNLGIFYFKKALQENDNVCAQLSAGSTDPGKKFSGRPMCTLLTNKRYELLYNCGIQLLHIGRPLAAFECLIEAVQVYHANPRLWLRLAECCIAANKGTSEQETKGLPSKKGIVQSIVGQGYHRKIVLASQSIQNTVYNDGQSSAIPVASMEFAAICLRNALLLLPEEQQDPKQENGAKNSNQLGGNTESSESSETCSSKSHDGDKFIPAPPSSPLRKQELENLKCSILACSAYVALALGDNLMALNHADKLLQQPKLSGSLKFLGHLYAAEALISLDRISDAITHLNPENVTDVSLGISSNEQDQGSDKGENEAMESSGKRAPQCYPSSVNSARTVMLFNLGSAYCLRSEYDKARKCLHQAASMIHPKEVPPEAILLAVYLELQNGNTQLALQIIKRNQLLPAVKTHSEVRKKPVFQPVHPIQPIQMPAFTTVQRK", "UniProt Q8NFW8": "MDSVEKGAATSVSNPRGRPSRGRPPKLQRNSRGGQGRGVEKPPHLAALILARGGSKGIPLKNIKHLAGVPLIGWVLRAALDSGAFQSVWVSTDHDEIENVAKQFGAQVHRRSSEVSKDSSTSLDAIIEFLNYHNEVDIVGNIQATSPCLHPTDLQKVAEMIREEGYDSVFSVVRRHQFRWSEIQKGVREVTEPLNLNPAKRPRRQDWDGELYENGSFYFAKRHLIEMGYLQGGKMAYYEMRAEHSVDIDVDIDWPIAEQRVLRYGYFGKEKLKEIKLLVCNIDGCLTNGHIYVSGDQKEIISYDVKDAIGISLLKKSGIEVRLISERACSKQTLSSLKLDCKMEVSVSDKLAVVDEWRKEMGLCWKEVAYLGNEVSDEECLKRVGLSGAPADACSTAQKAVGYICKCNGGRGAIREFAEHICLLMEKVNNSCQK", "UniProt P30622": "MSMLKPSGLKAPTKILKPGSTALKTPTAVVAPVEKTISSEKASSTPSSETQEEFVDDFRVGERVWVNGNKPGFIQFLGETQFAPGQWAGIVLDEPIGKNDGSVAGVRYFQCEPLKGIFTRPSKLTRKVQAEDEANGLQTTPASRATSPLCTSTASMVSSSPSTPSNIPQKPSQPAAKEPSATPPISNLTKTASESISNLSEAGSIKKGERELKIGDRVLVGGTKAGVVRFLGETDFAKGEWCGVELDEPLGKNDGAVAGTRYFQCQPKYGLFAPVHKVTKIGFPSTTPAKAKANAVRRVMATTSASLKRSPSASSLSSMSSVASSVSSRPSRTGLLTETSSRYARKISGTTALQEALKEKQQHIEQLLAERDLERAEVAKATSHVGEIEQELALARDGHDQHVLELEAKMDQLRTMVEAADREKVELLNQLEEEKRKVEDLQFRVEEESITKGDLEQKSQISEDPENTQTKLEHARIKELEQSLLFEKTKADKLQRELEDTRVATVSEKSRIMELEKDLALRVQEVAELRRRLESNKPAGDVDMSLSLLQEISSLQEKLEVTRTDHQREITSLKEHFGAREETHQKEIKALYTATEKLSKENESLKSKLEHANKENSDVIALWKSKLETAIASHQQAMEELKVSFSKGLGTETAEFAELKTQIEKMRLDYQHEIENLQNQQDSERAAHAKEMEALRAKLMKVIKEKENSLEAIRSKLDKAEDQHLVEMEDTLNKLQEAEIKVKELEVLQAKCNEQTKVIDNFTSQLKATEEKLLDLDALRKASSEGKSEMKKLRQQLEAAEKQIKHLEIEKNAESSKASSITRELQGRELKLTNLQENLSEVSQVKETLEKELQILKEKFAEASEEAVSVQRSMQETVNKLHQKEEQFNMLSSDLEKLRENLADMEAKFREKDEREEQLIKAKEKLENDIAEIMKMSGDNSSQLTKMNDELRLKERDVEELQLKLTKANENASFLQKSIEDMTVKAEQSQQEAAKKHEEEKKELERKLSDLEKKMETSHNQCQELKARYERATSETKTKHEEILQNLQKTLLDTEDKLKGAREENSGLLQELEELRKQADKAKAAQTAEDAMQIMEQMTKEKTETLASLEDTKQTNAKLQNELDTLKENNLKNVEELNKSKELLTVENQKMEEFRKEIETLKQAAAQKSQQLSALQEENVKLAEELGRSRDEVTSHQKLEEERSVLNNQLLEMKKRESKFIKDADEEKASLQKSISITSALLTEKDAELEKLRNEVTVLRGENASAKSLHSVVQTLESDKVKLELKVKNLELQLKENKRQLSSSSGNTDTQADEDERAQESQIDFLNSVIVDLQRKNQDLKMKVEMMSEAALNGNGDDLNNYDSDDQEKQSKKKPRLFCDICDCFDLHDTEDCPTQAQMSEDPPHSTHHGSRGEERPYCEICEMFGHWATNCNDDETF", "UniProt P62633": "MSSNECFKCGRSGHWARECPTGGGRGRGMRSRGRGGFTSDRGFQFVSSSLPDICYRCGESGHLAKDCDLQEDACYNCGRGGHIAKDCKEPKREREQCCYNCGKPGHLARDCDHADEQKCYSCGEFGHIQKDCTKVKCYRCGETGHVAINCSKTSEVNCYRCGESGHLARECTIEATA", "UniProt P30085": "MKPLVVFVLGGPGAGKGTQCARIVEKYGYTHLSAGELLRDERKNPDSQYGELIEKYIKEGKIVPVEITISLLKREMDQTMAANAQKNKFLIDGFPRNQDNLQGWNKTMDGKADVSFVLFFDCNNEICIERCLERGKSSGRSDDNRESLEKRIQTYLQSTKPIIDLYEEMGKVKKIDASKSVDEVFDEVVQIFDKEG", "UniProt Q16740, whole entry, looked up": "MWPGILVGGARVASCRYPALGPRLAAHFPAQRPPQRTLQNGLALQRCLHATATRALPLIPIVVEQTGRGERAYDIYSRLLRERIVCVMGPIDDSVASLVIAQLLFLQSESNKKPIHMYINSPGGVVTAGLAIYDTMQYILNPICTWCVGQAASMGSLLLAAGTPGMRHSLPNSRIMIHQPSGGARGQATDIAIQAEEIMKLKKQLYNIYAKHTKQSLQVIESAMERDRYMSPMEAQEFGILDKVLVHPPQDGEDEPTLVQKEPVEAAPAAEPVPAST", "UniProt Q9NRP2": "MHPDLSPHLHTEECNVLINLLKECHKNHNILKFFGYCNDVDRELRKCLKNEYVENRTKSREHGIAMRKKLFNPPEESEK", "UniProt Q9NX76": "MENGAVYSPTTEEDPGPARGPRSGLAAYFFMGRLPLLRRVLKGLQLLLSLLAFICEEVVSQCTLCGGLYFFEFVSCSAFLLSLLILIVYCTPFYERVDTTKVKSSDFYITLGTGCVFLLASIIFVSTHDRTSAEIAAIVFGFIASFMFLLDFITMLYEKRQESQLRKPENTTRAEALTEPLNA", "UniProt Q92600, whole entry, looked up": "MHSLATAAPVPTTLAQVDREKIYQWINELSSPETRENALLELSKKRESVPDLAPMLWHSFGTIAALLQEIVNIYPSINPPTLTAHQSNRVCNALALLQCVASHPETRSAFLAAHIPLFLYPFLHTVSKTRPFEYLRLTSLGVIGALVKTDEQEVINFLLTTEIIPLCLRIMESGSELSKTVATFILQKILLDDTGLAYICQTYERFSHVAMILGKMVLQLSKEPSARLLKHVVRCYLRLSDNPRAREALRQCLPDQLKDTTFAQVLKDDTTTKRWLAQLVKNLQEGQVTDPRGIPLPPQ"},
  "source": "the supplement of paper PMC10849652",
  "note": "The other results are listed elsewhere or left out.",
  "data": [
    {"compound": "CC1=NC(=CC=C1)C2=C(N=C(N2)C(C)(C)C)C3=CC4=NC=CN=C4C=C3", "assay": "log2 fold change, soluble protein after heating vs DMSO (PISA); higher = thermal stabilisation; K562 cells, 10 uM, 30 min; active = over 0.2 and 3.5 SD of the protein, either way, in both replicates (recomputed)", "outline": "(§1)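 K562 cells at 2×10^6 cells/mL were given 10 μM compound for 30 min. Aliquots then went through 3 min of heating across 48°C-58°C, were pooled, and were extracted in PBS with 0.5% NP-40 at 4°C, and the supernatant after 21,000xg for 90 min was quantified by TMTpro 16plex LC-MS/MS with channel sums equalised. Thermal stability relative to control samples, from duplicates, is given as log2 fold change.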", "values": [
      {"target": "CISD3 (UniProt P0C7P0)", "log2 fold change": "inactive: -0.037"},
      {"target": "CLTA isoform 2 (UniProt P09496)", "log2 fold change": "inactive: -0.047"},
      {"target": "CMSS1 (UniProt Q9BQ75)", "log2 fold change": "inactive: 0.027"},
      {"target": "CNOT8 (UniProt Q9UFF9)", "log2 fold change": "inactive: -0.009"},
      {"target": "COA3 (UniProt Q9Y2R0)", "log2 fold change": "inactive: -0.008"},
      {"target": "CKB (UniProt P12277)", "log2 fold change": "inactive: 0.016"},
      {"target": "CNP (UniProt P09543)", "log2 fold change": "inactive: 0.018"},
      {"target": "CNOT6L (UniProt Q96LI5)", "log2 fold change": "inactive: -0.054"},
      {"target": "COL15A1 (UniProt P39059)", "log2 fold change": "inactive: 0.023"},
      {"target": "CLCN7 (UniProt P51798)", "log2 fold change": "inactive: 0.006"},
      {"target": "CLEC16A (UniProt Q2KHT3)", "log2 fold change": "inactive: 0.05"},
      {"target": "CLTB (UniProt P09497)", "log2 fold change": "inactive: 0.037"},
      {"target": "COA7 (UniProt Q96BR5)", "log2 fold change": "inactive: 0.047"},
      {"target": "CLASP1 (UniProt Q7Z460)", "log2 fold change": "inactive: 0.031"},
      {"target": "CNTN4 (UniProt Q8IWV2)", "log2 fold change": "inactive: -0.244"},
      {"target": "CKAP5 (UniProt Q14008)", "log2 fold change": "inactive: -0.017"},
      {"target": "CNOT10 isoform 6 (UniProt Q9H9A5)", "log2 fold change": "inactive: 0.004"},
      {"target": "CLIC1 (UniProt O00299)", "log2 fold change": "inactive: 0.017"},
      {"target": "CLNS1A (UniProt P54105)", "log2 fold change": "inactive: 0.001"},
      {"target": "CMAS (UniProt Q8NFW8)", "log2 fold change": "inactive: -0.054"},
      {"target": "CKMT1A (UniProt P12532)", "log2 fold change": "inactive: -0.036"},
      {"target": "CLIP1 isoform 1 (UniProt P30622)", "log2 fold change": "inactive: -0.013"},
      {"target": "CIAO2A (UniProt Q9H5X1)", "log2 fold change": "inactive: 0.011"},
      {"target": "CNBP isoform 6 (UniProt P62633)", "log2 fold change": "inactive: -0.035"},
      {"target": "CMPK1 (UniProt P30085)", "log2 fold change": "inactive: 0.022"},
      {"target": "CLPP (UniProt Q16740)", "log2 fold change": "inactive: 0.007"},
      {"target": "CLPTM1L (UniProt Q96KA5)", "log2 fold change": "inactive: 0.022"},
      {"target": "CMC2 (UniProt Q9NRP2)", "log2 fold change": "inactive: 0.058"},
      {"target": "CISD2 (UniProt Q8N5K1)", "log2 fold change": "inactive: -0.028"},
      {"target": "CMTM6 (UniProt Q9NX76)", "log2 fold change": "inactive: -0.036"},
      {"target": "CISD1 (UniProt Q9NZ45)", "log2 fold change": "inactive: 0.007"},
      {"target": "CLPB isoform 2 (UniProt Q9H078)", "log2 fold change": "inactive: -0.005"},
      {"target": "CNOT9 isoform 2 (UniProt Q92600)", "log2 fold change": "inactive: 0.027"}
    ]},
    {"compound": "CCCCN(Cc1ccc(C(=O)NO)cc1)C(=O)Nc1ccccc1 [Nexturastat A]", "assay": "log2 fold change, soluble protein after heating vs DMSO (PISA); higher = thermal stabilisation; K562 cells, 10 uM, 30 min; active = over 0.2 and 3.5 SD of the protein, either way, in both replicates (recomputed)", "outline": "as §1", "values": [
      {"target": "CISD3 (UniProt P0C7P0)", "log2 fold change": "inactive: -0.003"},
      {"target": "CLTA isoform 2 (UniProt P09496)", "log2 fold change": "inactive: -0.001"},
      {"target": "CMSS1 (UniProt Q9BQ75)", "log2 fold change": "inactive: 0.038"},
      {"target": "CNOT8 (UniProt Q9UFF9)", "log2 fold change": "inactive: 0.116"},
      {"target": "COA3 (UniProt Q9Y2R0)", "log2 fold change": "inactive: -0.038"},
      {"target": "CKB (UniProt P12277)", "log2 fold change": "inactive: -0.032"},
      {"target": "CNP (UniProt P09543)", "log2 fold change": "inactive: -0.08"},
      {"target": "CNOT6L (UniProt Q96LI5)", "log2 fold change": "inactive: 0"},
      {"target": "COL15A1 (UniProt P39059)", "log2 fold change": "inactive: 0.152"},
      {"target": "CLCN7 (UniProt P51798)", "log2 fold change": "inactive: -0.07"},
      {"target": "CLEC16A (UniProt Q2KHT3)", "log2 fold change": "inactive: -0.052"},
      {"target": "CLTB (UniProt P09497)", "log2 fold change": "inactive: -0.039"},
      {"target": "COA7 (UniProt Q96BR5)", "log2 fold change": "inactive: -0.11"},
      {"target": "CLASP1 (UniProt Q7Z460)", "log2 fold change": "inactive: 0.129"},
      {"target": "CNTN4 (UniProt Q8IWV2)", "log2 fold change": "inactive: 0.342"},
      {"target": "CKAP5 (UniProt Q14008)", "log2 fold change": "inactive: 0.23"},
      {"target": "CNOT10 isoform 6 (UniProt Q9H9A5)", "log2 fold change": "inactive: 0.148"},
      {"target": "CLIC1 (UniProt O00299)", "log2 fold change": "inactive: -0.039"},
      {"target": "CLNS1A (UniProt P54105)", "log2 fold change": "inactive: 0.001"},
      {"target": "CMAS (UniProt Q8NFW8)", "log2 fold change": "inactive: 0.138"},
      {"target": "CKMT1A (UniProt P12532)", "log2 fold change": "inactive: 0.019"},
      {"target": "CLIP1 isoform 1 (UniProt P30622)", "log2 fold change": "inactive: -0.078"},
      {"target": "CIAO2A (UniProt Q9H5X1)", "log2 fold change": "inactive: -0.048"},
      {"target": "CNBP isoform 6 (UniProt P62633)", "log2 fold change": "inactive: 0.072"},
      {"target": "CMPK1 (UniProt P30085)", "log2 fold change": "inactive: -0.01"},
      {"target": "CLPP (UniProt Q16740)", "log2 fold change": "inactive: 0.041"},
      {"target": "CLPTM1L (UniProt Q96KA5)", "log2 fold change": "inactive: -0.032"},
      {"target": "CMC2 (UniProt Q9NRP2)", "log2 fold change": "inactive: -0.025"},
      {"target": "CISD2 (UniProt Q8N5K1)", "log2 fold change": "inactive: -0.027"},
      {"target": "CMTM6 (UniProt Q9NX76)", "log2 fold change": "inactive: -0.043"},
      {"target": "CISD1 (UniProt Q9NZ45)", "log2 fold change": "inactive: -0.01"},
      {"target": "CLPB isoform 2 (UniProt Q9H078)", "log2 fold change": "inactive: -0.018"},
      {"target": "CNOT9 isoform 2 (UniProt Q92600)", "log2 fold change": "inactive: 0.086"}
    ]},
    {"compound": "CCCS(=O)(=O)Nc1ccc(F)c(C(=O)c2c[nH]c3ncc(-c4ccc(Cl)cc4)cc23)c1F [vemurafenib]", "assay": "log2 fold change, soluble protein after heating vs DMSO (PISA); higher = thermal stabilisation; K562 cells, 10 uM, 30 min; active = over 0.2 and 3.5 SD of the protein, either way, in both replicates (recomputed)", "outline": "as §1", "values": [
      {"target": "CISD3 (UniProt P0C7P0)", "log2 fold change": "inactive: -0.039"},
      {"target": "CLTA isoform 2 (UniProt P09496)", "log2 fold change": "inactive: -0.108"},
      {"target": "CMSS1 (UniProt Q9BQ75)", "log2 fold change": "inactive: -0.021"},
      {"target": "CNOT8 (UniProt Q9UFF9)", "log2 fold change": "inactive: 0.123"},
      {"target": "COA3 (UniProt Q9Y2R0)", "log2 fold change": "inactive: 0.055"},
      {"target": "CKB (UniProt P12277)", "log2 fold change": "inactive: 0"},
      {"target": "CNP (UniProt P09543)", "log2 fold change": "inactive: 0.013"},
      {"target": "CNOT6L (UniProt Q96LI5)", "log2 fold change": "inactive: 0.028"},
      {"target": "COL15A1 (UniProt P39059)", "log2 fold change": "inactive: 0.073"},
      {"target": "CLCN7 (UniProt P51798)", "log2 fold change": "inactive: 0.001"},
      {"target": "CLEC16A (UniProt Q2KHT3)", "log2 fold change": "inactive: -0.054"},
      {"target": "CLTB (UniProt P09497)", "log2 fold change": "inactive: -0.009"},
      {"target": "COA7 (UniProt Q96BR5)", "log2 fold change": "inactive: -0.013"},
      {"target": "CLASP1 (UniProt Q7Z460)", "log2 fold change": "inactive: 0.052"},
      {"target": "CNTN4 (UniProt Q8IWV2)", "log2 fold change": "inactive: -0.038"},
      {"target": "CKAP5 (UniProt Q14008)", "log2 fold change": "inactive: 0.054"},
      {"target": "CNOT10 isoform 6 (UniProt Q9H9A5)", "log2 fold change": "inactive: 0.009"},
      {"target": "CLIC1 (UniProt O00299)", "log2 fold change": "inactive: 0.021"},
      {"target": "CLNS1A (UniProt P54105)", "log2 fold change": "inactive: 0.005"},
      {"target": "CMAS (UniProt Q8NFW8)", "log2 fold change": "inactive: -0.016"},
      {"target": "CKMT1A (UniProt P12532)", "log2 fold change": "inactive: -0.011"},
      {"target": "CLIP1 isoform 1 (UniProt P30622)", "log2 fold change": "inactive: 0.017"},
      {"target": "CIAO2A (UniProt Q9H5X1)", "log2 fold change": "inactive: 0.002"},
      {"target": "CNBP isoform 6 (UniProt P62633)", "log2 fold change": "inactive: -0.065"},
      {"target": "CMPK1 (UniProt P30085)", "log2 fold change": "inactive: 0.068"},
      {"target": "CLPP (UniProt Q16740)", "log2 fold change": "inactive: 0.015"},
      {"target": "CLPTM1L (UniProt Q96KA5)", "log2 fold change": "inactive: 0.045"},
      {"target": "CMC2 (UniProt Q9NRP2)", "log2 fold change": "inactive: 0.017"},
      {"target": "CISD2 (UniProt Q8N5K1)", "log2 fold change": "inactive: -0.044"},
      {"target": "CMTM6 (UniProt Q9NX76)", "log2 fold change": "inactive: -0.229"},
      {"target": "CISD1 (UniProt Q9NZ45)", "log2 fold change": "inactive: -0.017"},
      {"target": "CLPB isoform 2 (UniProt Q9H078)", "log2 fold change": "inactive: 0.053"},
      {"target": "CNOT9 isoform 2 (UniProt Q92600)", "log2 fold change": "inactive: 0.042"}
    ]}
  ]
}
